Measured values as given in PMC2841620.
These are yes or no findings as the source states them, for the method shown. Binding seen in cells or lysates may run through a third protein. Binding can be weak; no strength is given.

Sequences of proteins named here, by UniProt entry; tags and fusion partners are left off.
UniProt P24937: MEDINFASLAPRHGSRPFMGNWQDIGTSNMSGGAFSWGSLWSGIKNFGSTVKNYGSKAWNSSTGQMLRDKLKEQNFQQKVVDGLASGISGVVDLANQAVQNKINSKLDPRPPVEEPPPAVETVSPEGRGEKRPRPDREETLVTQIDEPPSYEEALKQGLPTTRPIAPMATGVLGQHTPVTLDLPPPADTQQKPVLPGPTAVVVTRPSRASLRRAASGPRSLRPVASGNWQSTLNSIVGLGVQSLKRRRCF

Target: recombinant protein VI-wt (adenovirus serotype 5 capsid protein VI) (human adenovirus serotype 5 (Ad5)) (UniProt P24937)
Experiment: pull-down; recombinant protein VI-wt or VI-M1 coupled to beads; cytosolic extracts of 293T cells overexpressing GFP-tagged Nedd4 ligases; bound material detected by western blot with the respective antibodies; only the target purified

GFP-Nedd4.1 (from UniProt P46934-4) (enzyme)
binding: binds
